PubChem BioAssay AID504791, Drosophila RNAi Screening Center | 2011
In all, the deposit lists about 23,000 reagents; shown is an unselected part of those with a known target gene and a result. Over the whole deposit, 199 (0.86%) were called active. 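Plate-scaled ratios behind the calls are not deposited; printed light signals are raw; many rows marked increased or decreased are still called inactive.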 Names joined by + are all predicted targets of the reagent. Not given: the direction of the score.

- Screen: 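Genes of the fly required for silencing by miRNA, siRNA or endo-siRNA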 (primary screen)
- System: Drosophila S2-derived reporter cells
- Reagent: long dsRNA against Drosophila genes, about 150-250 ng dsRNA per well (siRNA assay); about 80-120 ng (miRNA assay)
- Time to read-out: about 5 days (siRNA assay); about 4 days (miRNA assay)
- Conditions: copper sulfate induction of reporters: 25 µM (siRNA assay); 200 mM stated (miRNA assay), 1-2 days before reading
- Detection: 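Per-well ratio of Renilla over firefly light, expressed relative to that plate's average ratio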
- Units: stable assay Renilla, run 1 in luminescence; stable assay firefly, run 1 in luminescence
- Call rule: 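a well was a first-pass pick when its plate-scaled ratio rose above 1.5 (siRNA assay) or 1.6 (miRNA assay), or dropped below 0.6; a gene counted only if two separate dsRNAs agreed on retest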

After knock-down of bw [DRSC04005], the screen gave stable assay Renilla, run 1 = 4316; stable assay firefly, run 1 = 3.52e5; inactive. With knock-down of bw [DRSC04677], the screen gave stable assay Renilla, run 1 = 1.87e5; stable assay firefly, run 1 = 2.68e5; inactive. Depletion of CG6220 [DRSC06969] resulted in: stable assay Renilla, run 1 = 6866; stable assay firefly, run 1 = 3.59e5; inactive. Efr [DRSC18322] scored stable assay Renilla, run 1 = 6640; stable assay firefly, run 1 = 2.70e5; inactive. Knock-down of mio [DRSC00692] resulted in: miRNA reporter change reporter ratio lowered past the hit cutoff; stable assay Renilla, run 1 = 8711; stable assay firefly, run 1 = 6.41e5; inactive. Depletion of mio [DRSC22056] came out at: stable assay Renilla, run 1 = 6938; stable assay firefly, run 1 = 4.68e5; inactive.

Depletion of CG42383 [DRSC21733] came out at: stable assay Renilla, run 1 = 7758; stable assay firefly, run 1 = 4.00e5; inactive. Silencing of CG15841 (retired record) + Acp33A [DRSC01859] came out at: stable assay Renilla, run 1 = 6627; stable assay firefly, run 1 = 4.16e5; inactive. Depletion of CG42366 [DRSC02760] came out at: stable assay Renilla, run 1 = 5888; stable assay firefly, run 1 = 3.59e5; inactive. CG42366 [DRSC23297] scored stable assay Renilla, run 1 = 3879; stable assay firefly, run 1 = 3.19e5; inactive. For CG9536 [DRSC03254], the entry reads stable assay Renilla, run 1 = 34222; stable assay firefly, run 1 = 7.40e5; inactive. For CG4520 [DRSC15590] the deposit lists stable assay Renilla, run 1 = 6539; stable assay firefly, run 1 = 4.20e5; inactive.

For CG13186 [DRSC06311], the values are stable assay Renilla, run 1 = 5143; stable assay firefly, run 1 = 4.13e5; inactive. fs(1)K10 [DRSC18775] scored stable assay Renilla, run 1 = 6842; stable assay firefly, run 1 = 3.06e5; inactive. Depletion of Mur2B [DRSC18545] resulted in: stable assay Renilla, run 1 = 7430; stable assay firefly, run 1 = 3.94e5; inactive. For Mur2B [DRSC18546], the entry reads stable assay Renilla, run 1 = 7044; stable assay firefly, run 1 = 3.32e5; inactive. Knock-down of Snap25 [DRSC21228] resulted in: stable assay Renilla, run 1 = 5727; stable assay firefly, run 1 = 5.11e5; inactive. Knock-down of Snap25 [DRSC21236] resulted in: stable assay Renilla, run 1 = 4655; stable assay firefly, run 1 = 3.62e5; inactive.

Knock-down of CG11626 [DRSC14336] gave: stable assay Renilla, run 1 = 7352; stable assay firefly, run 1 = 4.31e5; inactive.

Part of the list above, reformatted:
{"predicted target": "CG42366", "dsRNA": "DRSC23297", "stable assay Renilla, run 1": 3879, "stable assay firefly, run 1": 3.19e5, "call": "inactive"}
{"predicted target": "CG9536", "dsRNA": "DRSC03254", "stable assay Renilla, run 1": 34222, "stable assay firefly, run 1": 7.40e5, "call": "inactive"}
{"predicted target": "CG4520", "dsRNA": "DRSC15590", "stable assay Renilla, run 1": 6539, "stable assay firefly, run 1": 4.20e5, "call": "inactive"}
{"predicted target": "CG13186", "dsRNA": "DRSC06311", "stable assay Renilla, run 1": 5143, "stable assay firefly, run 1": 4.13e5, "call": "inactive"}

Further reagents follow.
After knock-down of CG34109 [DRSC02169], the record shows stable assay Renilla, run 1 = 6783; stable assay firefly, run 1 = 3.44e5; inactive. CG34109 [DRSC02224] scored stable assay Renilla, run 1 = 7139; stable assay firefly, run 1 = 3.31e5; inactive. CG34109 [DRSC02225] showed stable assay Renilla, run 1 = 6368; stable assay firefly, run 1 = 3.81e5; inactive. Knock-down of CG8927 [DRSC16458] resulted in: stable assay Renilla, run 1 = 7882; stable assay firefly, run 1 = 3.71e5; inactive. Against CG8187 [DRSC07099] the deposit lists stable assay Renilla, run 1 = 8702; stable assay firefly, run 1 = 3.24e5; inactive. With knock-down of CG2865 [DRSC18527], the record shows stable assay Renilla, run 1 = 6430; stable assay firefly, run 1 = 3.35e5; inactive.

CG2865 [DRSC18528] gave stable assay Renilla, run 1 = 3407; stable assay firefly, run 1 = 3.46e5; inactive. Against CG32371 [DRSC22209], the values are stable assay Renilla, run 1 = 8958; stable assay firefly, run 1 = 5.76e5; inactive. L (retired record) [DRSC05966] showed stable assay Renilla, run 1 = 5803; stable assay firefly, run 1 = 3.44e5; inactive. L (retired record) [DRSC05967] showed stable assay Renilla, run 1 = 4423; stable assay firefly, run 1 = 1.76e5; inactive.
